Data as given in article PMC3089618.
These are yes or no findings as the source states them, for the method shown. Binding seen in cells or lysates may run through a third protein. A yes stands for co-enrichment or nearness to the bait. Other partners may have been found.

Protein sequences, listed by entry. Tags and fused reporters are not part of them.
UniProt Q9UNS1: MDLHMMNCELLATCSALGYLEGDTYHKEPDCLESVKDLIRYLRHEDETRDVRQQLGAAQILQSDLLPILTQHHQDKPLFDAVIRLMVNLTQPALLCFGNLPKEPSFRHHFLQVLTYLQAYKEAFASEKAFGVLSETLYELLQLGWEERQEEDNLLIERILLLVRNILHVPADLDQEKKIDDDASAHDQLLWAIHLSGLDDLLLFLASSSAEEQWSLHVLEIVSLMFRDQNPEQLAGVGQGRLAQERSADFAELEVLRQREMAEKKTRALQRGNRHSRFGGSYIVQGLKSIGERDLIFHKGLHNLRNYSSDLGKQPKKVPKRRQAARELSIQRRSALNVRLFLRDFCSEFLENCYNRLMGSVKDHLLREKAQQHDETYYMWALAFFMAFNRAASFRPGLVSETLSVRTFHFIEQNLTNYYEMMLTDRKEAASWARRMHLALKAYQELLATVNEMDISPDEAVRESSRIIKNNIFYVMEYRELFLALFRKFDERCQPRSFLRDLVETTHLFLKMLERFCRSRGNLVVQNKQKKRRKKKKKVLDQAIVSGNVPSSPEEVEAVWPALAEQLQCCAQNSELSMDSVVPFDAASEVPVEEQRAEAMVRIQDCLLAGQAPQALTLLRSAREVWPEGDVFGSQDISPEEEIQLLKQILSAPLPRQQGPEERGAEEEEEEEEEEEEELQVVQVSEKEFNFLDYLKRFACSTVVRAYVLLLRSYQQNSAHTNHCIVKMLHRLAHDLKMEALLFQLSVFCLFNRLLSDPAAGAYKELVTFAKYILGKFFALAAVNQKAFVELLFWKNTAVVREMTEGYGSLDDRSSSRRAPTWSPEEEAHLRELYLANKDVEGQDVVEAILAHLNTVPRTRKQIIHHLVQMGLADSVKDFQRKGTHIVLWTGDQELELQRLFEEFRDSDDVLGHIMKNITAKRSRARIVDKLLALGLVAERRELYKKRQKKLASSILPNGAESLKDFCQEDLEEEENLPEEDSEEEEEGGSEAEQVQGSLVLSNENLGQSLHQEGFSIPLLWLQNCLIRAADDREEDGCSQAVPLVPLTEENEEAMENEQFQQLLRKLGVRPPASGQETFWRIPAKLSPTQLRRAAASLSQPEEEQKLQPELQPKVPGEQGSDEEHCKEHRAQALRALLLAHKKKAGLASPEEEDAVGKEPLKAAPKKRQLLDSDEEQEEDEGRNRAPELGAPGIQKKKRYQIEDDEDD
UniProt O14965: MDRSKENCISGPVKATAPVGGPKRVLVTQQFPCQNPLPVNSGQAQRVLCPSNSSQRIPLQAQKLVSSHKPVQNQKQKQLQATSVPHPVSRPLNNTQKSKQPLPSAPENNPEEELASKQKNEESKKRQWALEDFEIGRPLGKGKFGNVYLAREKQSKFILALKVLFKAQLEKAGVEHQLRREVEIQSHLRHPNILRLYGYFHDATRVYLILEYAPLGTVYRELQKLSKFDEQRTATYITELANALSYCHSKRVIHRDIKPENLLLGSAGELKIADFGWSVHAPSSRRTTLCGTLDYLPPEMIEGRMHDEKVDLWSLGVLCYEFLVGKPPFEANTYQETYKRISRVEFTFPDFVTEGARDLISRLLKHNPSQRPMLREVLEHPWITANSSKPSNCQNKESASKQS
UniProt Q96GD4: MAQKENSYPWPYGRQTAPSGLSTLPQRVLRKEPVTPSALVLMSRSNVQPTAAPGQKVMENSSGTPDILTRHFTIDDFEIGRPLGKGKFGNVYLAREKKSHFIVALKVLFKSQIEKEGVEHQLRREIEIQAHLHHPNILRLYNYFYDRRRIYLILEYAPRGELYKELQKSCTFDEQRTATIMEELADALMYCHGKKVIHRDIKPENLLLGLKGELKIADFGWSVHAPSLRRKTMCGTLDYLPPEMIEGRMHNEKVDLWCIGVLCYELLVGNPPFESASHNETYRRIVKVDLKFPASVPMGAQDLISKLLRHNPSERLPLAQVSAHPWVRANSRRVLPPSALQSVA
UniProt Q9HAW4: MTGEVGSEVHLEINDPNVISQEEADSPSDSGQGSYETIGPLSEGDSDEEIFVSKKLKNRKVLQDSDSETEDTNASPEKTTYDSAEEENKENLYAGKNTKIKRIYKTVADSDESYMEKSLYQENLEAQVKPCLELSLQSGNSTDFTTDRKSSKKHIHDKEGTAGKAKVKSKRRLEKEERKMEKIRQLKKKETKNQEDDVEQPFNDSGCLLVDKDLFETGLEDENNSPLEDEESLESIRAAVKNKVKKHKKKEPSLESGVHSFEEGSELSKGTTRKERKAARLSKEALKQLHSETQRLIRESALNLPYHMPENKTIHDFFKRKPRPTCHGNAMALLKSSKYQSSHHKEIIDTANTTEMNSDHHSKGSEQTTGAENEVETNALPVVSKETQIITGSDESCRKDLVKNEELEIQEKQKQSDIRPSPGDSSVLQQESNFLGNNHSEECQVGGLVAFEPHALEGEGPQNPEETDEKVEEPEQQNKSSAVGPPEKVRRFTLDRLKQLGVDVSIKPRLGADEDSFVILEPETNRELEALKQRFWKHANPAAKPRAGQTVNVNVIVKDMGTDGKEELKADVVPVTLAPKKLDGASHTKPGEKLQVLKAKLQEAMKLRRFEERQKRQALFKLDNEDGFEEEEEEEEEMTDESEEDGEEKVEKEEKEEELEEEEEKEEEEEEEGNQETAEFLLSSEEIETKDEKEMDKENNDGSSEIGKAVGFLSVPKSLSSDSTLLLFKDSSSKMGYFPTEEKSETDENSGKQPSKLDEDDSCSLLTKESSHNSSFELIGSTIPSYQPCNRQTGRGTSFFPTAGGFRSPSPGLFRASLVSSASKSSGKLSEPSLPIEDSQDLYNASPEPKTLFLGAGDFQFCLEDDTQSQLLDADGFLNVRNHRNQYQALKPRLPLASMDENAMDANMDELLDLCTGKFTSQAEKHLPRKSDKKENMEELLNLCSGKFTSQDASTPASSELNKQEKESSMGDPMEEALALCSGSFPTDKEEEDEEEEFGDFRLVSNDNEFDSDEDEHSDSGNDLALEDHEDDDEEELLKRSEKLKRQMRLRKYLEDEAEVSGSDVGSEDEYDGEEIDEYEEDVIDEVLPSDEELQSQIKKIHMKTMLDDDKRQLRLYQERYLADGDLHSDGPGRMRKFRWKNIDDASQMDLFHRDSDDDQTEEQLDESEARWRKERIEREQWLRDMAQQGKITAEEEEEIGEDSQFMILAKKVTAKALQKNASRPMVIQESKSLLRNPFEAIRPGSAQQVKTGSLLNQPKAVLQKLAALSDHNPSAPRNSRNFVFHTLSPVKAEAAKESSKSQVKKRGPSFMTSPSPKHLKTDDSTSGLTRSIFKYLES
UniProt P53350: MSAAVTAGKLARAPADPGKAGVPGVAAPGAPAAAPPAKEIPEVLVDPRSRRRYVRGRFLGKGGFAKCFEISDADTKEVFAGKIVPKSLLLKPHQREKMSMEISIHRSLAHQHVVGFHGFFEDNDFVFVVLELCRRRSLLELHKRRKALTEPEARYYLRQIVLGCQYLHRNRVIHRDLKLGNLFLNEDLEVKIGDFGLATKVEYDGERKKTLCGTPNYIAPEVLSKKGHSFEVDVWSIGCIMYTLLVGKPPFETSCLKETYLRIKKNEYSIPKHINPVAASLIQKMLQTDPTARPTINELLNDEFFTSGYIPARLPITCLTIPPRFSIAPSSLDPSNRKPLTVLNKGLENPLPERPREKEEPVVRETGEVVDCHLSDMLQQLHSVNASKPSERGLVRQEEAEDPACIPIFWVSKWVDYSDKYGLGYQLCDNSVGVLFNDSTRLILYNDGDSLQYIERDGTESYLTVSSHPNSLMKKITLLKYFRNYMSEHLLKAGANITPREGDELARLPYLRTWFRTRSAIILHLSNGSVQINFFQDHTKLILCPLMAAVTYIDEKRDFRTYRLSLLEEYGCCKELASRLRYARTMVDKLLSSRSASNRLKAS
UniProt Q8IY18: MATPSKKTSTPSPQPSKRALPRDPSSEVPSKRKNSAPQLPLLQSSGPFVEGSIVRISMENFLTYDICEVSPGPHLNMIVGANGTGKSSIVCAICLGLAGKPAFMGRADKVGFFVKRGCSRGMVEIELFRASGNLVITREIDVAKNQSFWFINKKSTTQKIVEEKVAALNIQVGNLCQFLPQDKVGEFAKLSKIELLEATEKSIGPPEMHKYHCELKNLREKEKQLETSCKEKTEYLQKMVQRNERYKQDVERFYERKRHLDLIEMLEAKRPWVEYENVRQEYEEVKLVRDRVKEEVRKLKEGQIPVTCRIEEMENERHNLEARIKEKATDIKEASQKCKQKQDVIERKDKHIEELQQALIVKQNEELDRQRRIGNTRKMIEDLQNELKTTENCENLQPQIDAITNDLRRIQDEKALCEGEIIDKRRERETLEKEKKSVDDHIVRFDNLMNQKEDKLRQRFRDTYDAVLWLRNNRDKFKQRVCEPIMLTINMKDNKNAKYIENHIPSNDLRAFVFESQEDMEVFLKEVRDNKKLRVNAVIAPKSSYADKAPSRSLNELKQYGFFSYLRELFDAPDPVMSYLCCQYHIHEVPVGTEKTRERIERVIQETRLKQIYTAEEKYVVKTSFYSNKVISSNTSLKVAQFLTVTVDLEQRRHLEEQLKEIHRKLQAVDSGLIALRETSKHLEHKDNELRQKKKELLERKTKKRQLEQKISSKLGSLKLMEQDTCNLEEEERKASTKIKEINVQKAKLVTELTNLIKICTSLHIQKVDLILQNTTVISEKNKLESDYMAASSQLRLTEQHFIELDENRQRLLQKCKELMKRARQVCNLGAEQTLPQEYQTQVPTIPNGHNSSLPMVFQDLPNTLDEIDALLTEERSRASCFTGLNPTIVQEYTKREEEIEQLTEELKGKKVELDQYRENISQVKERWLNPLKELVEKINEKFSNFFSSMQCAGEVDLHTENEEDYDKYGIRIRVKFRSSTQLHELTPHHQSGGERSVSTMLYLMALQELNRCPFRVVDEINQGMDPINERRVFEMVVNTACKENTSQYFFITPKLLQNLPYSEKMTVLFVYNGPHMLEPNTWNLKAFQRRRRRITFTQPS

Molecular target: FLAG-tagged Tim protein (human Timeless), wild type (human) (UniProt Q9UNS1)
Assay: affinity purification with mass spectrometry + co-IP; FLAG-Tim purified on FLAG-agarose from a stable 293T cell line, peptide elution, compared with a FLAG-vector control line; enriched bands analysed by LC/MS/MS and partners validated by Western blot

Aurora A, endogenous in 293T cells (from UniProt O14965 1-403) (enzyme)
binding: binds

Aurora B, endogenous in 293T cells (from UniProt Q96GD4 1-344) (enzyme)
binding: binds

Claspin (from UniProt Q9HAW4 1-1339)
binding: binds

Polo-like kinase 1 (Plk1), endogenous in 293 cells (from UniProt P53350 1-603) (enzyme)
binding: binds

SMC5 (from UniProt Q8IY18 1-1101)
binding: binds

B1: Tipin (protein, UniProt Q9BVW5 1-301)
chain: MLEPQENGVIDLPDYEHVEDETFPPFPPPASPERQDGEGTEPDEESGNGAPVRVPPKRTVKRNIPKLDAQRLISERGLPALRHVFDKAKFKGKGHEAEDLKMLIRHMEHWAHRLFPKLQFEDFIDRVEYLGSKKEVQTCLKRIRLDLPILHEDFVSNNDEVAENNEHDVTSTELDPFLTNLSESEMFASELSRSLTEEQQQRIERNKQLALERRQAKLLSNSQTLGNDMLMNTPRAHTVEEVNTDEDQKEESNGLNEDILDNPCNDAIANTLNEEETLLDQSFKNVQQQLDATSRNITEAR
binding: binds

B2: SMC6 (protein, UniProt Q96SB8 1-1091)
chain: MAKRKEENFSSPKNAKRPRQEELEDFDKDGDEDECKGTTLTAAEVGIIESIHLKNFMCHSMLGPFKFGSNVNFVVGNNGSGKSAVLTALIVGLGGRAVATNRGSSLKGFVKDGQNSADISITLRNRGDDAFKASVYGNSILIQQHISIDGSRSYKLKSATGSVVSTRKEELIAILDHFNIQVDNPVSVLTQEMSKQFLQSKNEGDKYKFFMKATQLEQMKEDYSYIMETKERTKEQIHQGEERLTELKRQCVEKEERFQSIAGLSTMKTNLESLKHEMAWAVVNEIEKQLNAIRDNIKIGEDRAARLDRKMEEQQVRLNEAEQKYKDIQDKLEKISEETNARAPECMALKADVVAKKRAYNEAEVLYNRSLNEYKALKKDDEQLCKRIEELKKSTDQSLEPERLERQKKISWLKERVKAFQNQENSVNQEIEQFQQAIEKDKEEHGKIKREELDVKHALSYNQRQLKELKDSKTDRLKRFGPNVPALLEAIDDAYRQGHFTYKPVGPLGACIHLRDPELALAIESCLKGLLQAYCCHNHADERVLQALMKRFYLPGTSRPPIIVSEFRNEIYDVRHRAAYHPDFPTVLTALEIDNAVVANSLIDMRGIETVLLIKNNSVARAVMQSQKPPKNCREAFTADGDQVFAGRYYSSENTRPKFLSRDVDSEISDLENEVENKTAQILNLQQHLSALEKDIKHNEELLKRCQLHYKELKMKIRKNISEIRELENIEEHQSVDIATLEDEAQENKSKMKMVEEHMEQQKENMEHLKSLKIEAENKYDAIKFKINQLSELADPLKDELNLADSEVDNQKRGKRHYEEKQKEHLDTLNKKKRELDMKEKELEEKMSQARQICPERIEVEKSASILDKEINRLRQKIQAEHASHGDREEIMRQYQEARETYLDLDSKVRTLKKFIKLLGEIMEHRFKTYQQFRRCLTLRCKLYFDNLLSQRAYCGKMNFDHKNETLSISVQPGEGNKAAFNDMRALSGGERSFSTVCFILSLWSIAESPFRCLDEFDVYMDMVNRRIAMDLILKMADSQRFRQFILLTPQSMSSLPSSKLIRILRMSDPERGQTTLPFRPVTQEEDDDQR
binding: binds

B3: MCM3 (protein, UniProt P25205 1-808)
chain: MAGTVVLDDVELREAQRDYLDFLDDEEDQGIYQSKVRELISDNQYRLIVNVNDLRRKNEKRANRLLNNAFEELVAFQRALKDFVASIDATYAKQYEEFYVGLEGSFGSKHVSPRTLTSCFLSCVVCVEGIVTKCSLVRPKVVRSVHYCPATKKTIERRYSDLTTLVAFPSSSVYPTKDEENNPLETEYGLSVYKDHQTITIQEMPEKAPAGQLPRSVDVILDDDLVDKAKPGDRVQVVGTYRCLPGKKGGYTSGTFRTVLIACNVKQMSKDAQPSFSAEDIAKIKKFSKTRSKDIFDQLAKSLAPSIHGHDYVKKAILCLLLGGVERDLENGSHIRGDINILLIGDPSVAKSQLLRYVLCTAPRAIPTTGRGSSGVGLTAAVTTDQETGERRLEAGAMVLADRGVVCIDEFDKMSDMDRTAIHEVMEQGRVTIAKAGIHARLNARCSVLAAANPVYGRYDQYKTPMENIGLQDSLLSRFDLLFIMLDQMDPEQDREISDHVLRMHRYRAPGEQDGDAMPLGSAVDILATDDPNFSQEDQQDTQIYEKHDNLLHGTKKKKEKMVSAAFMKKYIHVAKIIKPVLTQESATYIAEEYSRLRSQDSMSSDTARTSPVTARTLETLIRLATAHAKARMSKTVDLQDAEEAVELVQYAYFKKVLEKEKKRKKRSEDESETEDEEEKSQEDQEQKRKRRKTRQPDAKDGDSYDPYDFSDTEEEMPQVHTPKTADSQETKESQKVELSESRLKAFKVALLDVFREAHAQSIGMNRLTESINRDSEEPFSSVEIQAALSKMQDDNQVMVSEGIIFLI
binding: binds

B4: MCM5 (protein, UniProt P33992 1-734)
chain: MSGFDDPGIFYSDSFGGDAQADEGQARKSQLQRRFKEFLRQYRVGTDRTGFTFKYRDELKRHYNLGEYWIEVEMEDLASFDEDLADYLYKQPAEHLQLLEEAAKEVADEVTRPRPSGEEVLQDIQVMLKSDASPSSIRSLKSDMMSHLVKIPGIIIAASAVRAKATRISIQCRSCRNTLTNIAMRPGLEGYALPRKCNTDQAGRPKCPLDPYFIMPDKCKCVDFQTLKLQELPDAVPHGEMPRHMQLYCDRYLCDKVVPGNRVTIMGIYSIKKFGLTTSRGRDRVGVGIRSSYIRVLGIQVDTDGSGRSFAGAVSPQEEEEFRRLAALPNVYEVISKSIAPSIFGGTDMKKAIACLLFGGSRKRLPDGLTRRGDINLLMLGDPGTAKSQLLKFVEKCSPIGVYTSGKGSSAAGLTASVMRDPSSRNFIMEGGAMVLADGGVVCIDEFDKMREDDRVAIHEAMEQQTISIAKAGITTTLNSRCSVLAAANSVFGRWDETKGEDNIDFMPTILSRFDMIFIVKDEHNEERDVMLAKHVITLHVSALTQTQAVEGEIDLAKLKKFIAYCRVKCGPRLSAEAAEKLKNRYIIMRSGARQHERDSDRRSSIPITVRQLEAIVRIAEALSKMKLQPFATEADVEEALRLFQVSTLDAALSGTLSGVEGFTSQEDQEMLSRIEKQLKRRFAIGSQVSEHSIIKDFTKQKYPEHAIHKVLQLMLRRGEIQHRMQRKVLYRLK
binding: binds
